Results as given in patent US11230581B2, “Peptides and combination of peptides for use in immunotherapy against ovarian cancer and other cancers” (Immatics Biotechnologies GmbH, priority 2015, dated 2022).

What was measured:
ovarian cancer samples = experiment: Relative LC-MS quantitation of HLA-presented peptides: presentation and over-presentation on ovarian cancer vs a panel of normal tissues (presentation score); design: species or system human; key: +++: very highly over-presented on tumors compared to a panel of normal tissues; ++: highly over-presented on tumors compared to a panel of normal tissues; +: over-presented on tumors compared to a panel of normal tissues; conditions: over-presentation on tumors compared to a panel of normal tissues
additional tumor types = experiment: LC-MS detection and over-presentation of the peptides on additional tumor types, cell lines and primary cultures; design: species or system human; conditions: for Other relevant organs/ cancerous diseases: Table 4A: additional tumor types on which the peptide was found, over-presented on more than 5% of measured tumor samples, or presented on more than 5% with ratio of geometric means tumor vs normal tissues larger than 3; for Additional organs/cancerous diseases: additional tumor types with over-presentation on more than 5% of the measured tumor samples, or presentation on more than 5% with ratio of geometric means tumor vs normal tissues larger than 3

Substance	Peptide Presentation (presentation score) (ovarian cancer samples)	Other relevant organs/ cancerous diseases (additional tumor types)	Additional organs/cancerous diseases (additional tumor types)
529 (LLADELITV; listed as Homo sapiens) [compound 529]	++	Prostate, Leukemia, Urinary bladder Cancer	SCLC, CLL, HNSCC
530 (VMYADIGGMDI; listed as Homo sapiens) [compound 530]	+	SCLC, Melanoma	CLL, Urinary Bladder Cancer, Uterine Cancer, Gallbladder Cancer and Bile Duct Cancer, HNSCC
531 (YTLPIASSIRL; listed as Homo sapiens) [compound 531]	+	SCLC, CRC, HCC	BRCA
538 (LLLAHIIAL; listed as Homo sapiens) [compound 538]	++	NSCLC, Brain Cancer, HCC	BRCA, Urinary Bladder Cancer, Uterine Cancer
539 (ALFDAQAQV; listed as Homo sapiens) [compound 539]	++	NSCLC, SCLC, Brain Cancer, HCC, PC, PrC, BrCa, Esophageal Cancer, Urinary bladder Cancer, Uterine Cancer, Gallbladder Cancer, Bile Duct Cancer	Melanoma, AML
540 (ALIPETTTLTV; listed as Homo sapiens) [compound 540]	++	HCC, PC, Melanoma	NHL
541 (SMLEPVPEL; listed as Homo sapiens) [compound 541]	+	NSCLC, SCLC, Brain Cancer, CRC, HCC, Esophageal Cancer	Gallbladder Cancer and Bile Duct Cancer
543 (GLLPTPITQQASL; listed as Homo sapiens) [compound 543]	+	Esophageal Cancer	BRCA
545 (LLADLLHNV; listed as Homo sapiens) [compound 545]	+	NSCLC, SCLC, Colon, Rectum	BRCA
546 (VMIAGKVAVV; listed as Homo sapiens) [compound 546]	+	Colon, Rectum, HCC	SCLC, Urinary Bladder Cancer, HNSCC
550 (FLYDEIEAEVNL; listed as Homo sapiens) [compound 550]	+	Leukemia, Melanoma	CLL
554 (LLMPSSEDLLL; listed as Homo sapiens) [compound 554]	++	NSCLC, SCLC, CRC, HCC, PrC, BrCa, Esophageal Cancer, Urinary bladder Cancer, Gallbladder Cancer, Bile Duct Cancer	CLL, Melanoma, HNSCC
557 (KLYDDMIRL; listed as Homo sapiens) [compound 557]	+		Brain Cancer, NHL
558 (GLLENIPRV; listed as Homo sapiens) [compound 558]	++	NSCLC, SCLC, RCC, Brain Cancer, HCC, Leukemia, Uterine Cancer, Gallbladder Cancer, Bile Duct Cancer	CLL, BRCA, Melanoma, AML, NHL
560 (ALWDIETGQQTTT; listed as Homo sapiens) [compound 560]	+	SCLC, HCC, Melanoma, Esophageal Cancer	CLL, Urinary Bladder Cancer, Uterine Cancer, Gallbladder Cancer and Bile Duct Cancer, NHL, HNSCC
561 (YLQLTQSEL; listed as Homo sapiens) [compound 561]	+++	SCLC, Leukemia, Esophageal Cancer, Gallbladder Cancer, Bile Duct Cancer	CLL, NHL, HNSCC
563 (WLLPYNGVTV; listed as Homo sapiens) [compound 563]	+	SCLC, Melanoma	CLL, Uterine Cancer, NHL

Substance	Peptide Presentation (presentation score) (ovarian cancer samples)	Other relevant organs/ cancerous diseases (additional tumor types)	Additional organs/cancerous diseases (additional tumor types)
564 (TVTNAVVTV; listed as Homo sapiens) [compound 564]	++	RCC, GC, HCC, Melanoma	
565 (ALQETPTSV; listed as Homo sapiens) [compound 565]	++	SCLC, Melanoma, Esophageal Cancer, Uterine Cancer	BRCA, Gallbladder Cancer and Bile Duct Cancer
566 (VIADGGIQNV; listed as Homo sapiens) [compound 566]	++	Leukemia, Melanoma, Endometrium	CRC, CLL, BRCA, Urinary Bladder Cancer, Gallbladder Cancer and Bile Duct Cancer, NHL
568 (TLYDIAHTPGV; listed as Homo sapiens) [compound 568]	++	NSCLC, SCLC, CRC, Melanoma, Esophageal Cancer	CLL, Urinary Bladder Cancer, NHL, HNSCC
570 (ALANQIPTV; listed as Homo sapiens) [compound 570]	+		HCC
574 (YLLQEPPRTV; listed as Homo sapiens) [compound 574]	+	SCLC	
575 (YLISQVEGHQV; listed as Homo sapiens) [compound 575]	+	CRC, HCC, MCC, Melanoma, Esophageal Cancer	NSCLC, SCLC, BRCA, Urinary Bladder Cancer, HNSCC
576 (ILLNNSGQIKL; listed as Homo sapiens) [compound 576]	++	NSCLC, CRC, HCC, Leukemia, BrCa, Melanoma, Esophageal Cancer	
579 (NLMEMVAQL; listed as Homo sapiens) [compound 579]	++	NSCLC, CRC, HCC, Leukemia	SCLC, CLL, Melanoma, Urinary Bladder Cancer, NHL
586 (KLKPGDLVGV; listed as Homo sapiens) [compound 586]	+	Brain Cancer, HCC	Uterine Cancer
589 (KLYPQLPAEI; listed as Homo sapiens) [compound 589]	+	NSCLC, SCLC, Brain Cancer, HCC, Leukemia, MCC, Melanoma, Esophageal Cancer	CLL, BRCA, Urinary Bladder Cancer
590 (SLIEKLWQT; listed as Homo sapiens) [compound 590]	+	SCLC, Brain Cancer	Uterine Cancer, AML
591 (SMAELDIKL; listed as Homo sapiens) [compound 591]	++	Leukemia, Esophageal Cancer, Endometrium	AML, HNSCC
593 (GLPRFGIEMV; listed as Homo sapiens) [compound 593]	+	Brain Cancer	
597 (KLLEGQVIQL; listed as Homo sapiens) [compound 597]	+	NSCLC, SCLC, CRC, HCC, BrCa	CLL, Melanoma, Gallbladder Cancer and Bile Duct Cancer, AML
599 (YLLNDASLISV; listed as Homo sapiens) [compound 599]	++	NSCLC, CRC, HCC, Melanoma, Uterine Cancer	SCLC
601 (SAFPFPVTV; listed as Homo sapiens) [compound 601]	+	Stomach, Leukemia, Esophageal Cancer	CLL, Gallbladder Cancer and Bile Duct Cancer, AML
